Our source for the binding signal values is publication PMC7862700.

Assay in all cases: DAPPL (digital affinity profiling via proximity ligation, sequencing)
Details in all cases: 10 mM Tris-HCl pH 7.5, 50 mM NaCl, 1 mM DTT, 4% glycerol, room temperature, 30 min; GST-TFs on glutathione beads, 16-mer random dsDNA library, 0.1% …; high values mean tight binding; double strand, one strand shown; scale: fold enrichment (6-mer frequency, TF over GST control)

One test deals with T1, ELK1 (UniProt P19419).
T1 sequence: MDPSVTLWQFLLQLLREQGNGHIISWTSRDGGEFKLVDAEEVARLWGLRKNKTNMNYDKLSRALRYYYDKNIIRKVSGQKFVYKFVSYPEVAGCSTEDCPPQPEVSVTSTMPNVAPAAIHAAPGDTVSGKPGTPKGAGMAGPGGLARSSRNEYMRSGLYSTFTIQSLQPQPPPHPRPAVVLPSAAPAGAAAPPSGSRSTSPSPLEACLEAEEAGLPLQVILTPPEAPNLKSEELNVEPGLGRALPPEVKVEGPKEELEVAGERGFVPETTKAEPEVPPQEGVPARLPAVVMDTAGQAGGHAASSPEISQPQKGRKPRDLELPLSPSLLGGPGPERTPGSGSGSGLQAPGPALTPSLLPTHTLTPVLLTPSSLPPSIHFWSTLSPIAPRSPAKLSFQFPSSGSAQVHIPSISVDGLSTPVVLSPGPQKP

A further test has as its target T2, ELK3 (UniProt P41970).
T2 sequence: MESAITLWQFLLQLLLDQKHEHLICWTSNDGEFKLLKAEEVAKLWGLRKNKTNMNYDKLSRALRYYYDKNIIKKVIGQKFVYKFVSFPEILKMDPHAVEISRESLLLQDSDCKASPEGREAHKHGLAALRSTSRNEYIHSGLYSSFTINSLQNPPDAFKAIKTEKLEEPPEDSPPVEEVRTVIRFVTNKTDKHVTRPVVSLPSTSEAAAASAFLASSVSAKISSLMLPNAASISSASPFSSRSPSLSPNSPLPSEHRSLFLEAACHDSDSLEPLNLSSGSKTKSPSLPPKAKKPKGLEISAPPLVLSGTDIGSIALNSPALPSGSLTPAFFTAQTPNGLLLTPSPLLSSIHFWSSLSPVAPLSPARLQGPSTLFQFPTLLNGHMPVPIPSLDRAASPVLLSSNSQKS

The next test addresses T3, SPIC (UniProt Q8N5J4).
T3 sequence: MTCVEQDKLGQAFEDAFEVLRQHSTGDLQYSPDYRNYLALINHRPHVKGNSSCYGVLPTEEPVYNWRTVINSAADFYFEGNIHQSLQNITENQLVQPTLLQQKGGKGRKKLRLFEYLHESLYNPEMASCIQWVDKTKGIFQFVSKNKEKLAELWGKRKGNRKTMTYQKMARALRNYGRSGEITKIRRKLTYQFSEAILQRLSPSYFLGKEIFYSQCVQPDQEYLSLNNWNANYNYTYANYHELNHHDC

In the next test the target is T4, ETS2 (UniProt P15036).
T4 sequence: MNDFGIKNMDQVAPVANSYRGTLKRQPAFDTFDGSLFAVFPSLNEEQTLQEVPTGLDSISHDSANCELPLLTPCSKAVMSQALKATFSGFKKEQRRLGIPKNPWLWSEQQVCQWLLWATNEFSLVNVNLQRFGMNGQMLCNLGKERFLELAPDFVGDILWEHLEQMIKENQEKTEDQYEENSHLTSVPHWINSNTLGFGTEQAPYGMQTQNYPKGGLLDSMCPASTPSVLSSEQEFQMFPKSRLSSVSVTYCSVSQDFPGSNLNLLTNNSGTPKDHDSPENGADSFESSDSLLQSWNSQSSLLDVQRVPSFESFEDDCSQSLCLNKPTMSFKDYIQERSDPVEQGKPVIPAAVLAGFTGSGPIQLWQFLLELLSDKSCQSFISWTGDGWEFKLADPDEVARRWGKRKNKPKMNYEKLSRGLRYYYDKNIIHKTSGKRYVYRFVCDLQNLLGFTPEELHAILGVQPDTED

For the next test, the target named is T5, ETV3 (UniProt P41162-2).
T5 sequence: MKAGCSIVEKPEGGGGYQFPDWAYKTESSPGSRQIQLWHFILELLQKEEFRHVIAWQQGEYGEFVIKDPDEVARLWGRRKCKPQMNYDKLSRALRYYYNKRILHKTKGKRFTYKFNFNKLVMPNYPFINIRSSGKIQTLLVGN

Only a part is listed here, and it is no random draw. At the low end of the ranking the order means little.

Regarding GCCAAC, the binding signal was 0.879 in the test with ELK1; 0.804 with ELK3; 0.958 in the test with SPIC; 0.947 with ETS2; 0.947 with ETV3.
CCAAAG: the binding signal in the test with ELK1 amounted to 0.997; with ELK3, 0.915; with SPIC it was 0.95; with ETS2, 0.836; with ETV3 it was 0.89.
In the same order, the values of TTAGGA are 0.936, 0.952, 0.939, 0.996 and 0.88.
For CGAGGT the same measures were 0.879, 0.929, 0.833, 0.974 and 0.975.
For AGAGAA the same measures were 0.821, 0.863, 0.793, 0.833 and 0.818.
Consider TCCAGA, for which the binding signal with ELK1 worked out at 0.825; in the test with ELK3 it was 0.843; with SPIC it was 0.778; with ETS2, 0.882; in the test with ETV3, 0.889.
For GATACC the same measures were 0.983, 0.803, 0.996, 0.971 and 0.933.
In the same order, the values of TGGAAC are 0.953, 0.969, 0.985, 0.919 and 0.955.
For CCCAGA the same measures were 0.787, 0.843, 0.894, 0.93 and 0.889.
AGCTTG: the binding signal was determined as 0.88 with ELK1; 0.925 in the test with ELK3; 0.986 with SPIC; 0.886 with ETS2; 0.976 in the test with ETV3.
Consider GATAAA, for which the binding signal in the test with ELK1 came out at 0.968; with ELK3 it was 0.96; with SPIC, 0.963; with ETS2, 0.95; in the test with ETV3 it was 0.942.
In the same order, the values of GTGGAT are 0.939, 1.04, 0.997, 0.922 and 0.93.
In the same order, the values of GCGAAA are 0.969, 0.864, 0.893, 0.946 and 0.885.
For GTGGTA the same measures were 0.912, 0.815, 0.874, 0.942 and 0.806.
Take ACGTCA: the binding signal in the test with ELK1 amounted to 0.957; in the test with ELK3 it was 0.941; with SPIC it was 0.946; with ETS2 it was 0.976; in the test with ETV3, 0.823.
As to TGAAGG, the binding signal was found to be 0.844 in the test with ELK1; 0.869 in the test with ELK3; 0.949 with SPIC; 0.91 in the test with ETS2; 0.937 with ETV3.
For TCGAGG the same measures were 0.79, 0.806, 0.802, 0.831 and 0.718.
Regarding TTTAGA, the binding signal amounted to 0.995 in the test with ELK1; 0.991 in the test with ELK3; 0.935 with SPIC; 0.943 with ETS2; 0.998 with ETV3.
For ACCAAA the same measures were 1.05, 0.969, 0.875, 0.979 and 1.02.
For AGGCTT the same measures were 0.97, 1.05, 0.973, 1.04 and 0.972.
In the same order, the values of GAAAGC are 0.91, 0.771, 0.933, 0.875 and 0.869.
Consider CAGATA, for which the binding signal in the test with ELK1 amounted to 0.925; with ELK3, 0.824; with SPIC, 0.925; in the test with ETS2, 0.947; with ETV3, 0.922.
On to TCGAGA, for which the binding signal in the test with ELK1 was found to be 0.643; with ELK3, 0.623; with SPIC it was 0.692; with ETS2, 0.587; with ETV3 it was 0.586.
In the case of GTTTAG, the binding signal in the test with ELK1 turned out to be 0.829; with ELK3, 0.875; in the test with SPIC it was 0.912; in the test with ETS2 it was 0.821; with ETV3, 0.87.
For TAAGAC the same measures were 0.91, 0.893, 0.992, 0.907 and 0.879.
For CATCGT the same measures were 0.917, 0.926, 0.87, 0.898 and 0.896.
In the same order, the values of GTGCCC are 0.975, 0.917, 0.872, 0.926 and 0.94.
With GGCTGC, the binding signal with ELK1 was determined as 0.995; with ELK3, 0.744; with SPIC, 0.964; in the test with ETS2, 0.975; in the test with ETV3, 0.817.
In the same order, the values of CATGCG are 0.982, 0.947, 1, 1 and 1.03.
As for GAAAGG, the binding signal in the test with ELK1 came to 0.935; with ELK3, 0.909; with SPIC, 0.918; with ETS2 it was 0.982; in the test with ETV3, 0.966.
In the same order, the values of AGGGTT are 0.951, 0.849, 0.99, 0.959 and 0.986.
In the same order, the values of CATTAG are 0.914, 0.894, 0.976, 0.895 and 0.999.
